# From the supplement of paper PMC10338343
# ± gives the standard deviation. The list shows a part of the results, in another mix than the full data. Many of these values have a large error.
# Test system: MILI (PIWIL2) piRISC loaded with Kctd7 piRNA (26 nt)
# Test: pre-steady-state target cleavage rate (min^-1); MIWI and MILI are mouse PIWI proteins and EfPiwi is from a freshwater sponge; tags in brackets are library labels; higher = faster piRNA-guided slicing of the target
# Conditions: guide: Kctd7 piRNA 5'p-UGUUAAUCUCUCAGAGAAGGUGACAG; auxiliary factor: 500 nM mouse GTSF1
# Method in brief: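 A burst-and-steady-state fit was used to obtain the pre-steady-state cleavage rate. The input data were sequencing reads of uncleaved targets, normalised to depth and to weakly complementary targets, from a […] transcribed, DNA-blocked target RNA library mixed with 1 nM active affinity-purified piRISC holding one synthetic guide, with or without 500 nM GTSF1 partner protein, in HEPES–potassium acetate buffer at 33 °C for 0–8 or 0–960 min. Three trials were pooled and k3 was capped at 0.0001 min^-1.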
# 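Also: 1 nM active piRISC with 0.1 nM target library at 33 °C single turnover.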
row,Sequence,pre-steady-state target cleavage rate
1,UAGUGACAGUGGAACUCUGACAGAUUAUCA,< 0.0001
2,UAGUGACAGUGCUUCUCUGAGAGAUUUUCA,0.000856 ± 0.0072
3,UAGUGACAGACCUUCUCUGAGACUAUAUGA,0.000226 ± 0.047
4,UAGUGACAGUGGUUCUCUGAUAGAUUAACA,0.000668 ± 0.0079
5,UAGUGACAGUCCUUCUCUGACGAGAUUAACA,0.00149 ± 0.0044
6,UAGUGACAGUGGAAGACUGAGAGAUUAACA,0.000114 ± 0.022
7,UAGUGACAGUGCUUCUCUGAGAGAAUAACA,0.0016 ± 0.0037
8,UAGUGACAGUCCUACUCUGAGAGAAUAACA,0.000271 ± 0.0078
9,UAGUGACUCAGGAUCUCUGAGAGAUUAAGA,0.000608 ± 0.011
10,UAGUGACAGUGGUUCUCUGAGAGAUUAAAA,0.000147 ± 0.026
11,UAGUCUGAGACCUUCUCUGAGAGAUAUUGA,0.00111 ± 0.006
12,UAGUGACAGUGGUUCUCUCAGAGAUUAACA,0.00157 ± 0.0043
13,UAGUGACAGUCCUUCUCUGAGAGUUAAACA,0.000351 ± 0.013
14,UAGUGACAGUGGAAGACUGAGAGUAUAACA,0.000185 ± 0.032
15,UAGUGAGUCAGCUUCUCUGAGAGAUUAACA,0.158 ± 0.013
16,UAGUGACACACCUUCUGACAGAGAUUAACA,0.00257 ± 0.0074
17,UAGUGACAGUGGUUCUCUCUCAGAUUAACA,0.000103 ± 0.028
18,UAGUCUGUCAGGAUCUCUGAGAGAUUUUGA,0.00143 ± 0.006
19,UAGUGACAGAGCUUCUCUGAGUGAUUAACA,0.00171 ± 0.008
20,UAGUGACAGUGCUUCUCUGAGAGUUUAUCA,0.00045 ± 0.012
21,UAGUGACUCACCUUCUCUGAGAGAUUUUCA,0.0728 ± 0.019
22,UAGUGACAGUGGUUCUCUGACUCAUUAACA,0.000213 ± 0.018
23,UAGUGUGUCAGGUUCUCUGAGAGAUAUUGA,0.000906 ± 0.0081
24,UAGUGACAGUGCUACUCAGAGAGAUUAACA,0.00115 ± 0.0049

row,Sequence,pre-steady-state target cleavage rate
1,UAGUGAGUCACCUUCUCUCUCAGAUUAACA,0.00261 ± 0.005
2,UAGUCUGUCACCUUCUCUCUCAGAUUAACA,0.00263 ± 0.0043
3,UAGUGACAGUGCUUCUCUCAGAGAUAAACA,0.00143 ± 0.0057
4,UAGUGACUCACCUACUCUGAGAGAUUUUGA,0.00259 ± 0.0046
5,UAGUGUGCACCUUCUCUGAGAGAUUAACA,0.196 ± 0.024
6,UAGUGACAGUCCUUCUCUGACAGAUUAUCA,0.000271 ± 0.017
7,UAGUGACAGUCCUUCAGUGAGAGAUUAAGA,0.00278 ± 0.0043
8,UAGUGACAGUCCAUCUCUGAGAGAUAAACA,0.00193 ± 0.0032
9,UAGUGACAGUGGAAGUCUGAGAGUUUAAGA,0.0001 ± 0.053
10,UAGUGACAGUGGAAGAGAGAGACAUUAACA,0.000118 ± 0.057
11,UAGUGACAGACCUUCUCUGAGUAGAUUAACA,0.005 ± 0.0051
12,UAGUGACAGUGGUUCUACUGAGAGAUUAACA,0.000258 ± 0.01
13,UAGUGACAGUGGAAGUCUGAGAGUUAAACA,< 0.0001
14,UAGUGACAGUCCUUCUCUGAGAGAUUUUGA,0.000441 ± 0.013
15,UAGUGAGUCACCAACUCUGAGAGAUAUUGA,0.001 ± 0.0097
16,UAGUGACAGUGCAACUCUGAGAGAUUAACA,0.00194 ± 0.0039
17,UAGUGACAGUCCUUCUCUGACUCAUUAAGA,0.000139 ± 0.018
18,UAGUGACACACCAACUCUGAGAGAUUAUGA,0.00174 ± 0.0049
19,UAGUGACAGUGGAAGAGACUCAGUUUAACA,0.000531 ± 0.011
20,UAGUGACAGUGGAAGACUGAGAGAUAUAACA,0.000263 ± 0.019
21,UAGUGACAGACCUUCUCUGAGUGUUUAACA,0.000651 ± 0.014
22,UAGUGAGUCUGGUUCUCUGAGAGAUUAUGA,0.000802 ± 0.0099
23,UAGUGACACACCUUCUCUGACUCAUUAUGA,0.000143 ± 0.025
24,UAGUGACUCACCUUCUGACAGAGAUAUUGA,0.000234 ± 0.032

# Six entries drawn at random from the list so far:
row,Sequence,pre-steady-state target cleavage rate
5,UAGUGUGCACCUUCUCUGAGAGAUUAACA,0.196 ± 0.024
24,UAGUGACUCACCUUCUGACAGAGAUAUUGA,0.000234 ± 0.032
10,UAGUGACAGUGGAAGAGAGAGACAUUAACA,0.000118 ± 0.057
7,UAGUGACAGUCCUUCAGUGAGAGAUUAAGA,0.00278 ± 0.0043
22,UAGUGAGUCUGGUUCUCUGAGAGAUUAUGA,0.000802 ± 0.0099
17,UAGUGACAGUCCUUCUCUGACUCAUUAAGA,0.000139 ± 0.018

# Carrying on:

row,Sequence,pre-steady-state target cleavage rate
1,UAGUCUGUCACCUUCUCUGAGAGAUUUAACA,0.245 ± 0.023
2,UAGUGAGUCAGCUUCUCUGAGAGAUUUACA,0.1 ± 0.018
3,UAGUGACAGUGCUUCUCUGAGAAUUAACA,0.000384 ± 0.012
4,UAGUCUGUCACGAUCUCUGAGAGAUUUUGA,0.00168 ± 0.0056
5,UAGUGACACACCUUCUCUGAGAGAUCAACA,0.0804 ± 0.024
6,UAGUGACAGUGGAUCCCUGAGAGAUUAACA,0.000326 ± 0.01
7,UAGUGUGUCACCUUCUCUGAGAGAUUAAUCA,0.18 ± 0.032
8,UAGUGACAGUCCUUCUGUGAGAGAUUAUGA,0.000943 ± 0.0061
9,UAGUGUGUCACCUUCUCACUGAGAUUUUGA,0.000601 ± 0.015
10,UAGUGACUCACCUUCUCUGAGACAUUAAGA,0.00109 ± 0.0058
11,UAGUGAGUCACCUUCUCUGAAGAGAUUAACA,0.0119 ± 0.0044
12,UAGUGACAGUGGUUCUCUGAGAGUUUAACA,0.00043 ± 0.014
13,UAGUGACAGUGGAACUCUGAGAGAUUAAACA,0.000127 ± 0.049
14,UAGUGACAGUGCAUCUCUGAGAGAUUAUCA,0.00119 ± 0.0054
15,UAGUGACUCACCUUGAGUGAGAGAUUAAGA,0.000395 ± 0.018
16,UAGUCUGUCACCUUCUCUCAGAGAUUAACA,0.064 ± 0.0081
17,UAGUGACAGUGGAAGACUGAGAGGUUAACA,0.000115 ± 0.023
18,UAGUGACAGUCCUUCUCUCAGACAUUAACA,0.00333 ± 0.0035
19,UAGUGACACAGGUUCUCUGAGAGAUUUUGA,0.000328 ± 0.022
20,UAGUGACAGUGGAAGAGACAGAGAUUAAUA,0.000263 ± 0.034
21,UAGUGACAGUCCUUCUCAGAGAGAUUAUCA,0.00412 ± 0.0043
22,UAGUGAGUCACCCUUCUCUGAGAGAUUAACA,0.19 ± 0.02
23,UAGUGACUCACCUUCUCUCUGAGAUUAUGA,0.000951 ± 0.0087
